In PubChem BioAssay AID1794844 (National Center for Advancing Translational Sciences (NCATS), 2023):
Hit rate of the full screen: of about 2,800 compounds, fewer than 10 were called active. Another 7% or so got no clear call; they are omitted. The call rests on the fitted dose curve; in most records, active means well fitted inhibition curve with a large enough effect; inconclusive means small, poorly fitted or top-dose-only effect; inactive means no such curve, though single readings can be large or run the other way. Some of the results follow.

Chains of the proteins cited; added tags and fusions are not shown. Lines headed by an entry give the natural chain unless they say otherwise; changes in a name come on top.
UniProt C7C422: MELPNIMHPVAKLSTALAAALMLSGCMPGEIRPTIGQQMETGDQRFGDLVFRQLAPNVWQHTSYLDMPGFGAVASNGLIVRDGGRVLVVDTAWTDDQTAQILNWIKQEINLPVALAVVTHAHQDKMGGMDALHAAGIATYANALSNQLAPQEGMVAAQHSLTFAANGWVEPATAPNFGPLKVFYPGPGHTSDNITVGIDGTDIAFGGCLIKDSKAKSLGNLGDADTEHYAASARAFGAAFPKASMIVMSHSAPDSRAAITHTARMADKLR

The compounds below were run against Metallo-beta-lactamase type 2 (Klebsiella pneumoniae) (UniProt C7C422) (assay: qHTS to identify inhibitors of the New Delhi Metallo-beta-lactamase (NDM): Nitrocefin screen against the machine-based learning selections.). Details: NDM-1 enzyme, nitrocefin hydrolysis, absorbance 485 nm; activity, negative = inhibition: at the top concentration.
How it was run: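 NDM-1 (2 nM final) in 50 mM HEPES pH 7.0, 1 uM Zn2SO4, 0.01% Tween20 was preincubated with compounds for >30 min. Nitrocefin (16.7 uM final) was read at 485 nm after 15 min, and meropenem (50 uM final) at 300 nm after 30 min.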
Further: % of control where 0% means no effect.

How did the “activity, negative = inhibition” value turn out when `O=C(NCc1cccc(F)c1)c1cnc2c(c1)N(C(=O)Cc1ccc(O)cc1)CCC2` was run?
Its value is inactive: -5.72% [at 57.5 µM].

For `Cc1ccnc(N2CCC(c3nnc(-c4ccc(F)cc4)o3)CC2)n1`, which “activity, negative = inhibition” value is on record?
The value was inactive: -0.0308%.

How did the “activity, negative = inhibition” value turn out when `O=c1cc(-c2ccccn2)oc2c(NCc3ccc(F)cc3)nccc12` was run?
Its value is inactive: -5.96% [at 57.5 µM].

For `O=C(c1ccccc1F)N1CCCC(c2nn[nH]n2)C1` (configuration not stated), which “activity, negative = inhibition” value is on record?
Its value is inactive: -3.56%.

`Cc1nc([C@@H]2CN(S(=O)(=O)c3ccc4c(c3)CCC4)C[C@H]2C(N)=O)n[nH]1` was tested. Which “activity, negative = inhibition” value did it give?
Its value is inactive: 1.21%.

With `CN(C)C[C@@H]1CN(Cc2ccccn2)C[C@H]1NS(=O)(=O)c1cccc(C#N)c1` as the compound, how does the “activity, negative = inhibition” value read?
The value was inactive: -3.85%.

How did the “activity, negative = inhibition” value turn out when `CC1=C[C@@H](CNCCN(C)C)[C@H](C(C)C)C[C@H]1Cc1nnc(-c2ccc(C)cc2)o1` was run?
Its value is inactive: -1.67% [at 57.5 µM].

`O=c1cc(-c2ccccn2)oc2c(-c3cccc(CO)c3)nccc12` was tested. Which “activity, negative = inhibition” value did it give?
The value was inactive: -1.46% [at 57.5 µM].

For `Cn1ccc2c(C(=O)NCc3cccnc3)nc(-c3cccc(O)c3)cc21`, which “activity, negative = inhibition” value is on record?
The value was inactive: -1.31% [at 57.5 µM].

Which “activity, negative = inhibition” value does the source give for `C[C@@H]1CN(c2cc(C3CC3)ncn2)C[C@@]1(O)C1CCC1` here?
The value was inactive: 4.23%.

For `O=C(Nc1ccc(F)cc1)Nc1cccc(-c2ccc(N3CCOCC3)nn2)c1`, which “activity, negative = inhibition” value is on record?
Its value is inactive: -0.193%.

`Cc1ccc(-c2noc([C@@H]3Cc4nc[nH]c4CN3C(=O)CCC(=O)O)n2)cc1` was tested. Which “activity, negative = inhibition” value did it give?
Its value is inactive: 6.38% [at 57.5 µM].

Which “activity, negative = inhibition” value does the source give for `COc1ccc(Nc2cc3c(cn2)CN(CCc2ccccc2)CCN3)cc1` here?
The value was inactive: 5.26% [at 57.5 µM].

For `Cc1cc(C)c(CNC(=O)c2nc(-c3cccc(O)c3)cc3[nH]ccc23)c(=O)[nH]1`, which “activity, negative = inhibition” value is on record?
Its value is inactive: 1.32% [at 57.5 µM].

How did the “activity, negative = inhibition” value turn out when `O=C(NC1CCCc2nc(N3CCC(CO)CC3)ncc21)c1ccccn1` (configuration not stated) was run?
The value was inactive: -6.76%.

Which “activity, negative = inhibition” value does the source give for `COc1ccccc1-c1cc(C(=O)NC(C)C)c2cnn(C)c2n1` here?
Its value is inactive: 1.61% [at 57.5 µM].

`CCN(CC)C(=O)[C@@H]1CCC[C@@H](NC(=O)Nc2c(C)noc2C)CN(C)C(=O)C1` was tested. Which “activity, negative = inhibition” value did it give?
The value was inactive: 0.167% [at 57.5 µM].

Which “activity, negative = inhibition” value does the source give for `CC1=C[C@@H](CN(C)CCN(C)C)[C@H](C(C)C)C[C@H]1Cc1nnc(-c2ccccc2)o1` here?
Its value is inactive: 0.36% [at 57.5 µM].

With `Cc1nn2cc(CCNCC3(O)CNCCOC3)nc2s1` (configuration not stated) as the compound, how does the “activity, negative = inhibition” value read?
The value was inactive: 2.59%.

With `Cc1ccccc1-c1[nH]nc2ncc(-c3cccc(O)c3)nc12` as the compound, how does the “activity, negative = inhibition” value read?
The value was inactive: 3.39% [at 57.5 µM].

Which “activity, negative = inhibition” value does the source give for `Cc1cccc(C)c1-c1nc(C(=O)NCCc2ccc(Cl)cc2)n2ccccc12` here?
The value was inactive: 2.12%.

Which “activity, negative = inhibition” value does the source give for `Cc1cnc(C)c(N2CCN(C(=O)CCCc3c[nH]c4ccccc34)CC2)n1` here?
Its value is inactive: 3.51%.

For `COc1ccc(NC(=O)N2CC[C@@H](CC(=O)O)[C@@H](CC3=NCCc4cc(OC)c(OC)cc43)C2)cc1`, which “activity, negative = inhibition” value is on record?
Its value is inactive: -1.53%.

With `NC1(Cc2cc(C(=O)N3CCCCC3)on2)COC1` as the compound, how does the “activity, negative = inhibition” value read?
The value was inactive: 0.216% [at 76.7 µM].

`COc1ccc2c(c1)CCN=C2C[C@H]1CN(C(=O)c2ccc(F)cc2)CC[C@H]1CC(=O)O` was tested. Which “activity, negative = inhibition” value did it give?
The value was inactive: -0.339% [at 57.5 µM].

For `CC(C)NC(=O)NC[C@H]1OC[C@@H](NCc2cccc(C#N)c2)[C@@H]1O`, which “activity, negative = inhibition” value is on record?
The value was inactive: -0.0432% [at 57.5 µM].

How did the “activity, negative = inhibition” value turn out when `C[C@@H]1CN(C(=O)c2cccc(C#N)c2)C[C@]1(C)O` was run?
The value was inactive: -0.759%.

How did the “activity, negative = inhibition” value turn out when `C[C@H]1[C@@H]2[C@@H](O)C([C@H](C)C(=O)NCc3cccs3)CC[C@@]2(C)CC[C@@H]1NC(=O)COc1ccccc1` (some centres not stated) was run?
The value was inactive: 0.373%.

How did the “activity, negative = inhibition” value turn out when `COCCN1C[C@H]2CN(Cc3ccc(C(F)(F)F)cc3)CCN2C1=O` was run?
Its value is inactive: -6.33% [at 57.5 µM].

`CCc1nncn1C1CCN(S(=O)(=O)c2ccc(C)cc2C)CC1` was tested. Which “activity, negative = inhibition” value did it give?
The value was inactive: 0.956%.

How did the “activity, negative = inhibition” value turn out when `CCOCC(=O)N1CCC(N2CC3CC(C2)[C@H]2CCCC(=O)N2C3)CC1` (some centres not stated) was run?
Its value is inactive: -4.41%.

With `CNC(=O)C(C)(C)N1CCC[C@H]1C(=O)NCc1ccc(OC)cc1` as the compound, how does the “activity, negative = inhibition” value read?
Its value is inactive: -2.5% [at 57.5 µM].

`COc1ccc2c(c1)C(NC(=O)c1cn(CCN)nn1)CC(C)(C)O2` (configuration not stated) was tested. Which “activity, negative = inhibition” value did it give?
The value was inactive: 1.86%.

With `CC(=O)NC1(C)CCN(Cc2cccc(-c3cccc4ncccc34)c2)C1` (configuration not stated) as the compound, how does the “activity, negative = inhibition” value read?
The value was inactive: -5.86% [at 57.5 µM].

`CC(C)c1nc2c(c(-c3ccc(O)cc3)n1)CN(C(=O)C1CC1)CC2` was tested. Which “activity, negative = inhibition” value did it give?
The value was inactive: 2.73% [at 57.5 µM].

For `CC(C)Cc1cn(CC2CCCN(C(=O)c3ccc4c(c3)CCO4)C2)nn1` (configuration not stated), which “activity, negative = inhibition” value is on record?
The value was inactive: -2.73%.

For `CCCNC(=O)N(C1CCOCC1)C1CCN(C(=O)c2cccc(C(F)(F)F)c2)CC1`, which “activity, negative = inhibition” value is on record?
The value was inactive: -5.81%.

Which “activity, negative = inhibition” value does the source give for `CN1C[C@H](NCc2cccc(Cl)c2)CCC[C@@H](C(=O)NC2CC2)CC1=O` here?
The value was inactive: 1.24% [at 57.5 µM].

How did the “activity, negative = inhibition” value turn out when `CC(=O)c1ccc(NC(=O)N2C[C@@H]3C[C@H](C2)c2ccc(NC(=O)CN(C)C)c(=O)n2C3)cc1` was run?
Its value is inactive: -4.12%.

For `O=C1NC(=NC2CCCC2)C2(CCN([S+](=O)([O-])c3cccc(C(F)(F)F)c3)C2)N1c1cccnc1` (configuration not stated), which “activity, negative = inhibition” value is on record?
The value was inactive: 1.35%.

For `O=C(NCC1CC1)c1ccnc(-c2nnc3ccc(Nc4ccccc4)nn23)c1`, which “activity, negative = inhibition” value is on record?
Its value is inactive: -4.55% [at 57.5 µM].

How did the “activity, negative = inhibition” value turn out when `Cc1ccccc1-c1cccc(CCOc2cnc3c(ccn3CC(=O)O)c2)c1` was run?
The value was inactive: -16.4% [at 57.5 µM].

For `Cn1cc(CN(Cc2c(C(=O)N3CCCC3)nc3sccn23)C2CC2)cn1`, which “activity, negative = inhibition” value is on record?
The value was inactive: 10.2%.

`O=C1CCN(Cc2ccccc2OCC(O)CN2CCCCC2)CCN1` (configuration not stated) was tested. Which “activity, negative = inhibition” value did it give?
Its value is inactive: 1.94%.

How did the “activity, negative = inhibition” value turn out when `COCc1noc([C@@H]2CN(C(=O)c3cccc(Cl)c3)C[C@H]2CO)n1` was run?
Its value is inactive: -2.5%.

How did the “activity, negative = inhibition” value turn out when `Cc1ccsc1-c1[nH]nc2ncc(-c3cccc(CO)c3)nc12` was run?
The value was inactive: 13.3% [at 57.5 µM].

For `COc1ccc(-n2nc(C)c([C@H]3C=C[C@@H](OC(=O)Nc4cccc(F)c4)C3)c2C)cc1`, which “activity, negative = inhibition” value is on record?
Its value is inactive: -0.333% [at 57.5 µM].
